# From publication PMC11977219
# Chains of the proteins cited; added tags and fusions are not shown.
# UniProt P42224: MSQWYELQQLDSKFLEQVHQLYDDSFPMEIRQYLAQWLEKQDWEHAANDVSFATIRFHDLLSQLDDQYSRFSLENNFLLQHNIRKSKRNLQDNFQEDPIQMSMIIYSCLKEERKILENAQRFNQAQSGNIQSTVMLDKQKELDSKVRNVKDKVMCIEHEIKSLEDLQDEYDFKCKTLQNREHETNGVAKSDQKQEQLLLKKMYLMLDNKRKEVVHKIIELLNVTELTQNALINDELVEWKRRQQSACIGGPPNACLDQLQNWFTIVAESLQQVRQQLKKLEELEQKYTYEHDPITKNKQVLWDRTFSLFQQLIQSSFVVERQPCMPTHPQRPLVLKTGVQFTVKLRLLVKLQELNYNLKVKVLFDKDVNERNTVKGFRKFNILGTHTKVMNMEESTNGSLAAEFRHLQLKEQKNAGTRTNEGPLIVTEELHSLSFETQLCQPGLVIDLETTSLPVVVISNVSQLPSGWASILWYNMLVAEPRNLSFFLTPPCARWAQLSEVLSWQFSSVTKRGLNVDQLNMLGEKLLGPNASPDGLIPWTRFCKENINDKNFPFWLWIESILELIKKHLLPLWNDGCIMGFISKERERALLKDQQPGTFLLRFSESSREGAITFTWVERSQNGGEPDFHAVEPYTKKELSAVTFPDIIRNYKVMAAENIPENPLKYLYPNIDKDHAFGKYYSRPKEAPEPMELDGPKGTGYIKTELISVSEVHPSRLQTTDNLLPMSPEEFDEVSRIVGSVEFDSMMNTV
# UniProt O95071: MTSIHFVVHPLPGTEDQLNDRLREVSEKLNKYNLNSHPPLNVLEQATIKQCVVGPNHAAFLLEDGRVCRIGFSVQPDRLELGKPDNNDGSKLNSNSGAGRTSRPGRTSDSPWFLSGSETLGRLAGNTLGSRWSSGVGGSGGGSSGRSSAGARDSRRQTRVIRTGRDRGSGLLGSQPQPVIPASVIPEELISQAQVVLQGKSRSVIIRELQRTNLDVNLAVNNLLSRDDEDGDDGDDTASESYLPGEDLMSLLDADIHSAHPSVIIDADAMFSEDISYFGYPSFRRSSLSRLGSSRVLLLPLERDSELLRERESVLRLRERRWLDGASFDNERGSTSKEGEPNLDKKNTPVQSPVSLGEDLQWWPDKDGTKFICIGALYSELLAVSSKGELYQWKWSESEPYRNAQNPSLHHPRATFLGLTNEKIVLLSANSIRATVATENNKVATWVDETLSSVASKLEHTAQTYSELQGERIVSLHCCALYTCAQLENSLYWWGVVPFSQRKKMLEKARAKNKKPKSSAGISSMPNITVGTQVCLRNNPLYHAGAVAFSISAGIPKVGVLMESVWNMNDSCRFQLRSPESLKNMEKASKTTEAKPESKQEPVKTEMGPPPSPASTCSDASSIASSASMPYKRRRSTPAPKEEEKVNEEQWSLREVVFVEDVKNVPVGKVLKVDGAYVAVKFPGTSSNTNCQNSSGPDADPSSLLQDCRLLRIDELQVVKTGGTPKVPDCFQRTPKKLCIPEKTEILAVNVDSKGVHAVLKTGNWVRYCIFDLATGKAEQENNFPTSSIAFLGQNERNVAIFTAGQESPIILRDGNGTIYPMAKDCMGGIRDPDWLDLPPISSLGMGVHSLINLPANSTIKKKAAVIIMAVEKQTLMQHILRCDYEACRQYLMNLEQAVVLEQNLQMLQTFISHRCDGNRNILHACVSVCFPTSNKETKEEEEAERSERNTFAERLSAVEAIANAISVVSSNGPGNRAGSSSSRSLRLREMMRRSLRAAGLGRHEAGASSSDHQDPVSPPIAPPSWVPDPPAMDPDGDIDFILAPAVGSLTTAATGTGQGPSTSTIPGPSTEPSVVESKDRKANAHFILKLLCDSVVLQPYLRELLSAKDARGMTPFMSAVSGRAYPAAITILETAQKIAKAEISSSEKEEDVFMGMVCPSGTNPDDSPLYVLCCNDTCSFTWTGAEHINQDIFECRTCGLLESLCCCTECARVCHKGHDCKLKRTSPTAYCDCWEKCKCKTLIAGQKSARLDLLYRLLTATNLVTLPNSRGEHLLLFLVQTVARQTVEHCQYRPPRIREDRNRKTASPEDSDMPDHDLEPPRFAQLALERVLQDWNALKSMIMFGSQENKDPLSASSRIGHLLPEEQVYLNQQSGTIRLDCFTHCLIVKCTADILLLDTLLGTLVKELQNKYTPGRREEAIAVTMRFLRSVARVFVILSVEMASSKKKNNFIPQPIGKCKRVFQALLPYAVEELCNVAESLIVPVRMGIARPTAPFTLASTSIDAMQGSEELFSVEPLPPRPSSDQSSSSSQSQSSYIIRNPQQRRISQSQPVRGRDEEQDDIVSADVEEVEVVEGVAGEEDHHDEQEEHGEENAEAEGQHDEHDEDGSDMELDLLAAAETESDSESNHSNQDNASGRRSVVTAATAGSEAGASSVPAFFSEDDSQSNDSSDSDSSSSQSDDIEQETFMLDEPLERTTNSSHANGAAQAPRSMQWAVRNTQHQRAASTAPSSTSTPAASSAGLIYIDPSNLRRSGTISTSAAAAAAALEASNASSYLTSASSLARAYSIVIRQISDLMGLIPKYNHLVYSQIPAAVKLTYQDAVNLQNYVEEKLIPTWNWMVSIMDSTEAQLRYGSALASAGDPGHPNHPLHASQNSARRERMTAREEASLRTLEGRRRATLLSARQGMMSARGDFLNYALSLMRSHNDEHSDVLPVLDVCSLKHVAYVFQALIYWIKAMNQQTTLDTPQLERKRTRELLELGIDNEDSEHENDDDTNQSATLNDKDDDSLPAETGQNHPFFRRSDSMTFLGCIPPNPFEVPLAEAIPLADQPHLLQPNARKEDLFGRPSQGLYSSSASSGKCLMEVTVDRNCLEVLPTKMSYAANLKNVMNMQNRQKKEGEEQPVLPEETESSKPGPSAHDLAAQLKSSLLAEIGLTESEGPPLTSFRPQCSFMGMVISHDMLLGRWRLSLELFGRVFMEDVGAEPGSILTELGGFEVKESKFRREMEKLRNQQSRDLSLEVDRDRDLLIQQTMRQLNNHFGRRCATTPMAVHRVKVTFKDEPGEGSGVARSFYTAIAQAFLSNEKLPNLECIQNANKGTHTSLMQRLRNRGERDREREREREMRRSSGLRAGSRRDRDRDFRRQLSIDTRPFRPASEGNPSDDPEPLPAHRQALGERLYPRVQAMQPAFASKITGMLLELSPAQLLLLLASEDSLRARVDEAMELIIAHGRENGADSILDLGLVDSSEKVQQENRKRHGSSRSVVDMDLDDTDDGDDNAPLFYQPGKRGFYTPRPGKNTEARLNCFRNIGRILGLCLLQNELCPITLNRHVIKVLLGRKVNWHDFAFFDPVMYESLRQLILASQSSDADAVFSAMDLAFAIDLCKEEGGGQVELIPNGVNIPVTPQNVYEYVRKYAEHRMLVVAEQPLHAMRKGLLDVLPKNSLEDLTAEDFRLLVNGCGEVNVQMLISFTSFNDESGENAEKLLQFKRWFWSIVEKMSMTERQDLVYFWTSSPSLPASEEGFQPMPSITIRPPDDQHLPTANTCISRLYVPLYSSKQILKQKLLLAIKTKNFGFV
# Target: T1, Flag-tagged human Viperin (human) (UniProt Q8WXG1)
# T1 sequence: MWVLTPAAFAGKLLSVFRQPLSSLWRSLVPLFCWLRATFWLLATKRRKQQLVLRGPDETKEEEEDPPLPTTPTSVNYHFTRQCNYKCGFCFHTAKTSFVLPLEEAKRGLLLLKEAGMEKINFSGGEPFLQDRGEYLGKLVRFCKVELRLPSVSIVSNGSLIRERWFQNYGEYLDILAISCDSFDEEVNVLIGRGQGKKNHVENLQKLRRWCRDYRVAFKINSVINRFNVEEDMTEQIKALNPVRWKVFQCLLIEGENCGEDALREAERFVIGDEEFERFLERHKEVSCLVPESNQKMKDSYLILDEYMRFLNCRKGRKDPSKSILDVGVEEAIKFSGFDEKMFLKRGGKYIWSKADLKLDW
# Test: affinity purification with mass spectrometry; HEK293T cells transfected with empty vector or Flag-Viperin, 48 h; NP-40 lysis buffer (150 mM NaCl, 20 mM Tris-HCl pH 7.4, 1% NP-40, 0.5 mM EDTA); Flag-Viperin pulled down with M2 affinity gel; gel bands analysed by Orbitrap Elite
row,binding,Substance
1,binds,"STAT1 (endogenous, HEK293T) (from UniProt P42224 1-750)"
2,binds,"UBR5 (endogenous, HEK293T) (from UniProt O95071 1-2799) (enzyme)"

# These are yes or no findings as the source states them, for the method shown. Binding seen in cells or lysates may run through a third protein. These calls come from enrichment with a bait or labelling near it, and not all partners need be listed. Where a sequence is shown, tags or fusion partners need not be part of it.
